This sample is rich in variants without activity.
Experiments:
biotinyl-Trp-oxazolone = experiment: self-aminoacylation, catalytic enhancement (BWO) (fold over background); higher = more active; k-Seq, kA / k0A0; sequences stand for … in GGGAAUGGAUCCACAUCUACGAAUUC…UUCACUGCAGACUUGACGAAGCUG
Procedure, shortened: (§1)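 The uncatalyzed rate is the low-activity peak of a bimodal Gaussian fit, and catalytic enhancement is median kA divided by it. The kA values came from pseudo-first-order fits, with 1000 bootstraps, of per-sequence fraction reacted measured by streptavidin capture, triplicate qPCR and Illumina sequencing. Mutagenized RNA pools with a 21-nt variable region (0.43 μM) were reacted with each biotinyl-aminoacyl-oxazolone at 2–1250 μM in 50 μL HEPES/NaCl/KCl/MgCl2/CaCl2 buffer with 5% acetonitrile, pH 6.9–7.0, for 90 minutes at room temperature.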

biotinyl-Leu-oxazolone = experiment: self-aminoacylation, catalytic enhancement (BLO) (fold over background); higher = more active; k-Seq, kA / k0A0; sequences stand for … in GGGAAUGGAUCCACAUCUACGAAUUC…UUCACUGCAGACUUGACGAAGCUG
Procedure, shortened: as §1

biotinyl-Val-oxazolone = experiment: self-aminoacylation, catalytic enhancement (BVO) (fold over background); higher = more active; k-Seq, kA / k0A0; sequences stand for … in GGGAAUGGAUCCACAUCUACGAAUUC…UUCACUGCAGACUUGACGAAGCUG
Procedure, shortened: as §1

biotinyl-Ile-oxazolone = experiment: self-aminoacylation, catalytic enhancement (BIO) (fold over background); higher = more active; k-Seq, kA / k0A0; sequences stand for … in GGGAAUGGAUCCACAUCUACGAAUUC…UUCACUGCAGACUUGACGAAGCUG
Procedure, shortened: as §1

biotinyl-Met-oxazolone = experiment: self-aminoacylation, catalytic enhancement (BMO) (fold over background); higher = more active; k-Seq, kA / k0A0; sequences stand for … in GGGAAUGGAUCCACAUCUACGAAUUC…UUCACUGCAGACUUGACGAAGCUG
Procedure, shortened: as §1

Sequence	self-aminoacylation (biotinyl-Trp-oxazolone)	self-aminoacylation (biotinyl-Leu-oxazolone)	self-aminoacylation (biotinyl-Val-oxazolone)	self-aminoacylation (biotinyl-Ile-oxazolone)	self-aminoacylation (biotinyl-Met-oxazolone)
AAGUUUCAUAAUAGUCGCAAG [Fam3.1 aminoacylation ribozyme variant]	1.59	1.33	1.36	1.88	1.67
AAGUUUCCAAAUAGUCGCAAG [Fam3.1 aminoacylation ribozyme variant]	1.76	1.65	1.22	1.62	1.03
AAGUUUGCUAAAAGCCGCAAG [Fam3.1 aminoacylation ribozyme variant]	1.08	0.63	0.689	0.613	0.604
AAGUUUGCUAAUAAUCGCAAC [Fam3.1 aminoacylation ribozyme variant]	1.18	0.773	0.975	0.8	1.06
AAGUUUGCUAAUAGUAGCAAA [Fam3.1 aminoacylation ribozyme variant]	1.3	1.17	1.56	1.5	1.18
AAGUUUGCUAAUAGUGGCAAA [Fam3.1 aminoacylation ribozyme variant]	1.24	0.789	1.04	1.09	0.891
AAGUUUGCUAAUGGUCGCAAC [Fam3.1 aminoacylation ribozyme variant]	1.37	1.54	0.997	1.04	1.17
AAGUUUGCUCAUAGUCGCAGG [Fam3.1 aminoacylation ribozyme variant]	1.59	1.91	1.32	1.35	1.43
AAGUUUGCUUAUAGUCGCAGG [Fam3.1 aminoacylation ribozyme variant]	1.5	1.99	1.43	1.34	1.3
AAGUUUGUUCAUAGUCGCAAG [Fam3.1 aminoacylation ribozyme variant]	1.5	1.32	1.43	1.42	1.13
AAGUUUUCUAAUAGUCUCAAG [Fam3.1 aminoacylation ribozyme variant]	1.52	1.01	1.21	1.26	1.09
AAUCACCAAGGUCAUCGGGUG [Fam2.2 aminoacylation ribozyme variant]	8.66	10.7	5.67	4.92	6.79
AAUUUUGCUAAUAAUCGCAAG [Fam3.1 aminoacylation ribozyme variant]	1.54	1.08	1.33	1.85	1.51
ACACACUUCAAGCAAUCGAUC [Fam1B.1 aminoacylation ribozyme variant]	0.844	0.665	0.971	0.815	0.492

Source: the supplement of paper PMC9233669
